# Data published in article doi:10.1101/2021.10.25.465832.
# Target: N-domain of PhoP (PhoPN), M-PFC fusion (M. tuberculosis)
# Assay: split reporter
binder,measurement,value
"SigE (M-PFC fusion, pUAB300-sigE) (protein, UniProt P9WGG7 1-257) MELLGGPRVGNTESQLCVADGDDLPTYCSANSEDLNITTITTLSPTSMSHPQQVRDDQWVEPSDQLQGTAVFDATGDKATMPSWDELVRQHADRVYRLAYRLSGNQHDAEDLTQETFIRVFRSVQNYQPGTFEGWLHRITTNLFLDMVRRRARIRMEALPEDYDRVPADEPNPEQIYHDARLGPDLQAALASLPPEFRAAVVLCDIEGLSYEEIGATLGVKLGTVRSRIHRGRQALRDYLAAHPEHGECAVHVNPVR",binding,binds

# No constants are given. Whether binding was seen depends on the method and setting. In cells and extracts the contact can be indirect. A result given as binding can be weak or reduced; the word gives no strength. Tags and fused reporters may be left off the sequences shown.
